Residue numbers refer to the chain shown, from its start. Numbers in names are those of the source. These are yes or no findings as the source states them, for the method shown. Binding seen in cells or lysates may run through a third protein. Some binding calls cover weakened binding; strength is not graded here. Where a sequence is shown, tags or fusion partners need not be part of it. Values belong to the binder of their own block, whether it stands above or below them.
Tests used:
[1] = target: mitochondrial RNA polymerase (POLRMT) (human (endogenous in HT1080)) (UniProt O00411); experiment: co-IP; extracts of isolated mitochondria of HT1080 cells incubated (30 min, 4°C) with antibodies (3 µg) against POLRMT or YFP; immune complexes isolated with µMACS Protein A/G microBeads or µMACS GFP-tagged Protein Isolation Kit; probed with antibodies against POLRMT, TFAM, YFP or TOP1MT
[2] = target: T1, MY-TOP1MT (human mitochondrial topoisomerase I with YFP appended to its N-terminus and a mitochondrial targeting sequence attached N-terminally to YFP) (human) (UniProt Q969P6); experiment: as above
T1 sequence: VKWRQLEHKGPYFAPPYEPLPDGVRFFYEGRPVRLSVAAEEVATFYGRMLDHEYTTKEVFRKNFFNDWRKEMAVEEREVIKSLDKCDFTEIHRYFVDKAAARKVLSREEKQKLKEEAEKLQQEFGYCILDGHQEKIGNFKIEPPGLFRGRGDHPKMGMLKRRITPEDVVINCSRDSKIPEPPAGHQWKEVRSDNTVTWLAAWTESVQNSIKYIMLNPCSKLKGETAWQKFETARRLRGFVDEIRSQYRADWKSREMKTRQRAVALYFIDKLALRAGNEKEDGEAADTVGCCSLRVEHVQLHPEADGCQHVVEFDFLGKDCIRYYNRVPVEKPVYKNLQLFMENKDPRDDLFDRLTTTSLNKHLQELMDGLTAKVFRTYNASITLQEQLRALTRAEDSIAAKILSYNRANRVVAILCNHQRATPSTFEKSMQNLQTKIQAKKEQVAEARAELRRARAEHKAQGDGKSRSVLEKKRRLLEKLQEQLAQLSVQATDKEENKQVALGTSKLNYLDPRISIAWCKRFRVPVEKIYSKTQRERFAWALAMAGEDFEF

The chains behind the UniProt entries cited, without tags or fusion partners. Residues count along the entry.
UniProt O00411, residues 42-1230: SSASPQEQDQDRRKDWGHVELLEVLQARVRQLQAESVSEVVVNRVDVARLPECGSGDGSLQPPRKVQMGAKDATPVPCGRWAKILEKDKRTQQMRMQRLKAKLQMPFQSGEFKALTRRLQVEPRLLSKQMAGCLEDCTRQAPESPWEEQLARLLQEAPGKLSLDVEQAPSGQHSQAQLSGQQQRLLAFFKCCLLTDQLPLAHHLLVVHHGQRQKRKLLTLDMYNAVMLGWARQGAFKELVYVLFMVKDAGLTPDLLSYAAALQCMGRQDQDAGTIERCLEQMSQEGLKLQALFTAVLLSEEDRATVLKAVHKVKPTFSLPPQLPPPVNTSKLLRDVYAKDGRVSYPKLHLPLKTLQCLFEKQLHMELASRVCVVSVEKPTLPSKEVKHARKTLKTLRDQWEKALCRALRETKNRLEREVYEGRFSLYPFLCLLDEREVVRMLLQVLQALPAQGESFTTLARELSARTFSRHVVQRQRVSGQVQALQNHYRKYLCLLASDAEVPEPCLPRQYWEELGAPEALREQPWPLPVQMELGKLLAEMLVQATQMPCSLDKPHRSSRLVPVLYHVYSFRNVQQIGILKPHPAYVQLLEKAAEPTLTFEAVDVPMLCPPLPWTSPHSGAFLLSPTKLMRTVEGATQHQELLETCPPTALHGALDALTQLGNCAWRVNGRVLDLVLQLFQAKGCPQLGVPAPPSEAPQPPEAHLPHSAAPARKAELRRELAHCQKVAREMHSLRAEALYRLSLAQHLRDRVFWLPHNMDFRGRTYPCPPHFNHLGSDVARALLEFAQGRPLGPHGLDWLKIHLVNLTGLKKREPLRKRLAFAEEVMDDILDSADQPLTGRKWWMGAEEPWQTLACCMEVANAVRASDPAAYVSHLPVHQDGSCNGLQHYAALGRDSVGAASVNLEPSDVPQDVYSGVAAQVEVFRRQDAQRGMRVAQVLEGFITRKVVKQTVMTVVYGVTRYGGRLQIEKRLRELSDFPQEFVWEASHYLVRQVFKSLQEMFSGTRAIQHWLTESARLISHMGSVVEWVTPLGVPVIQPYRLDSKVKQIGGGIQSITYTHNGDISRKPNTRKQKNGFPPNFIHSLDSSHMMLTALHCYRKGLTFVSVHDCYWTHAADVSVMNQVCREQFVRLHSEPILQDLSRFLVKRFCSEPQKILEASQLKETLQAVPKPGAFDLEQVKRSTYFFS

- binding [1]: binds
B1: MY-TOP1MT (human mitochondrial topoisomerase I with YFP appended to its N-terminus and a mitochondrial targeting sequence attached N-terminally to YFP) (enzyme, UniProt Q969P6 51-601)
chain: T1 sequence

- binding [1]: binds
B2: MY-TOP1MT^Y559F (inactive Y559F mutant of human mitochondrial topoisomerase I with N-terminal MTS and YFP) (enzyme, UniProt Q969P6 51-601)
chain: T1 sequence with Y509F

- binding [2]: no binding
B3: mitochondrial transcription factor A (TFAM) (protein, UniProt Q00059 43-246)
chain: SSVLASCPKKPVSSYLRFSKEQLPIFKAQNPDAKTTELIRRIAQRWRELPDSKKKIYQDAYRAEWQVYKEEISRFKEQLTPSQIMSLEKEIMDKHLKRKAMTKKKELTLLGKPKRPRSAYNVYVAERFQEAKGDSPQEKLKTVKENWKNLSDSEKELYIQHAKEDETRYHNEMKSWEEQMIEVGRKDLLRRTIKKQRKYGAEEC

From article PMC3834834
